For test [1], the target named is FLAG-eIF3f, full length, expressed from pcDNA3-flag in HEK293a cells (human) (UniProt O00303). As to the kind of experiment: co-IP; HEK293a cells transfected with expression vectors; NP-40 lysis buffer (20mM Tris-HCl pH8.0, 150mM NaCl, 1% NP-40); 1.5 mg lysate with CLU polyclonal or flag monoclonal antibody overnight at 4°C, protein A/G agarose; Western blot.
Test [2] deals with Clusterin expressed from pcDNA3.1-CLU in HEK293a cells (human) (UniProt P10909). Described as above.
Test [3] has as its target Clusterin, full (1-449), bait in pGilda (human) (UniProt P10909). As to the kind of experiment: two-hybrid; Matchmaker LexA system, EGY48 yeast; CLU constructs in pGilda (bait), eIF3f constructs in pB42AD (prey); growth on plates lacking leucine and β-galactosidase on X-gal plates, 30°C.
Test [4] has as its target Clusterin 1-227, bait in pGilda (human) (UniProt P10909). The test is described as above.

Protein sequences, listed by entry. Tags and fused reporters are not part of them. Lines headed by an entry give the natural chain unless they say otherwise; changes in a name come on top. Residues count along the entry.
UniProt O00303: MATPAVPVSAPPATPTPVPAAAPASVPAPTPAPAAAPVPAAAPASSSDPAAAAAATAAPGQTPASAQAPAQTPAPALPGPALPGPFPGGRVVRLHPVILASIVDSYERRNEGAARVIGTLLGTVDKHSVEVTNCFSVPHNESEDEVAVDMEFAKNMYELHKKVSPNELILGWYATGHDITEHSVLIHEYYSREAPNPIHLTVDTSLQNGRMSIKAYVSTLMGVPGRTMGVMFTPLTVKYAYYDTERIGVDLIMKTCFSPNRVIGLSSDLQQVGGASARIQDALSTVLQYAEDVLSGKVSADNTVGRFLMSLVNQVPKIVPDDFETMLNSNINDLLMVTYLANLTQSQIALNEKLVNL
UniProt P10909: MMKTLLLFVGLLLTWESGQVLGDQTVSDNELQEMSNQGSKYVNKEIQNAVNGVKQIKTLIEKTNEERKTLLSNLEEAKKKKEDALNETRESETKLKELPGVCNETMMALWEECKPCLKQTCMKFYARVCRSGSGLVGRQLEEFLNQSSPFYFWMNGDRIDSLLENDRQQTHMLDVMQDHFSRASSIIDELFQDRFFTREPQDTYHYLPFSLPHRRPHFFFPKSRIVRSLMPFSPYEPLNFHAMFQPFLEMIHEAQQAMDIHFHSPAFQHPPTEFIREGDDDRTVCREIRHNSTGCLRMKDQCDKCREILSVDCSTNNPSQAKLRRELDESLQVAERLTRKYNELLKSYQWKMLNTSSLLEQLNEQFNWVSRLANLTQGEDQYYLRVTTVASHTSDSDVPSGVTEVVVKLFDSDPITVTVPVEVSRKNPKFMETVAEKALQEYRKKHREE
Clusterin 1-227, bait in pGilda: residues 1-227 of P10909

Results are given in words; binding and its absence hold for the method and conditions named. For some assays here: Binding seen in cells or lysates may run through a third protein. Some binding calls cover weakened binding; strength is not graded here.

Regarding “Clusterin expressed from pcDNA3.1-CLU in HEK293a cells (from UniProt P10909 23-449)”, in test [1], the binding entry is “binds”.
Take “FLAG-eIF3f, full length, expressed from pcDNA3-flag in HEK293a cells (from UniProt O00303 1-357)”: the binding entry in test [2] was “binds”.
As for “eIF3f 1-170, prey in pB42AD (from UniProt O00303 1-170) (domain or fragment)”, the binding result in test [3] is “binds”.
Turning to “eIF3f, full (1-358), prey in pB42AD (from UniProt O00303 1-357)”, the binding entry in test [3] and in test [4] was “binds” throughout.

Source of the values: PMC4951308.
